In article PMC5076837:
No constants are given. Whether binding was seen depends on the method and setting. Binding seen in cells or lysates may run through a third protein. Some entries that bind do so weakly or less than the wild type.

Sequences of proteins named here, by UniProt entry; tags and fusion partners are left off. A change or cut given only in a name is not applied to a line headed by its entry.
UniProt Q9Z0U4: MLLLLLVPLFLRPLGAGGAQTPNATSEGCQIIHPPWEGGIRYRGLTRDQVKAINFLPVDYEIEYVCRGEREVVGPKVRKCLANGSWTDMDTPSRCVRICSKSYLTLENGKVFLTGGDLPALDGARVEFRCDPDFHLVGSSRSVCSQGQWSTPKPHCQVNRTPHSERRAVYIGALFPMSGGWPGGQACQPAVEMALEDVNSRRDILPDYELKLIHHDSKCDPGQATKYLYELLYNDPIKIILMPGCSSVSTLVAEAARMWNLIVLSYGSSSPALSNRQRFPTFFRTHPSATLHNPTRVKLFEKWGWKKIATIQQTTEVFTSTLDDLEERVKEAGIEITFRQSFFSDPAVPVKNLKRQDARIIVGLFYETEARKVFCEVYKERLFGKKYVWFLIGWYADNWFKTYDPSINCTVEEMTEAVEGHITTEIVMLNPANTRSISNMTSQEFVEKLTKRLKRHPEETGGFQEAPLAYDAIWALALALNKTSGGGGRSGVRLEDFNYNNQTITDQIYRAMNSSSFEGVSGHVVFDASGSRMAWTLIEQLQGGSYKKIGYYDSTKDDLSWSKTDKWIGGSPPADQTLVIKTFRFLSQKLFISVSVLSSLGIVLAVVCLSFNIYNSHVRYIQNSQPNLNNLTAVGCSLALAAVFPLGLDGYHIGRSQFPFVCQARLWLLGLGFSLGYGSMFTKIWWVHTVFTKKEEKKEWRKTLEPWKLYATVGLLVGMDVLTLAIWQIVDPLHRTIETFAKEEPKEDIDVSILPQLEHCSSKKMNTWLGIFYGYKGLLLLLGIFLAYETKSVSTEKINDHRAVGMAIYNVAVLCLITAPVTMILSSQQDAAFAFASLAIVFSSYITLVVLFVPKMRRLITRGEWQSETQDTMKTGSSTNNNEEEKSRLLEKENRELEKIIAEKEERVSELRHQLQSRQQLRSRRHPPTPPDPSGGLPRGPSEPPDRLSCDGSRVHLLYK
UniProt O88871: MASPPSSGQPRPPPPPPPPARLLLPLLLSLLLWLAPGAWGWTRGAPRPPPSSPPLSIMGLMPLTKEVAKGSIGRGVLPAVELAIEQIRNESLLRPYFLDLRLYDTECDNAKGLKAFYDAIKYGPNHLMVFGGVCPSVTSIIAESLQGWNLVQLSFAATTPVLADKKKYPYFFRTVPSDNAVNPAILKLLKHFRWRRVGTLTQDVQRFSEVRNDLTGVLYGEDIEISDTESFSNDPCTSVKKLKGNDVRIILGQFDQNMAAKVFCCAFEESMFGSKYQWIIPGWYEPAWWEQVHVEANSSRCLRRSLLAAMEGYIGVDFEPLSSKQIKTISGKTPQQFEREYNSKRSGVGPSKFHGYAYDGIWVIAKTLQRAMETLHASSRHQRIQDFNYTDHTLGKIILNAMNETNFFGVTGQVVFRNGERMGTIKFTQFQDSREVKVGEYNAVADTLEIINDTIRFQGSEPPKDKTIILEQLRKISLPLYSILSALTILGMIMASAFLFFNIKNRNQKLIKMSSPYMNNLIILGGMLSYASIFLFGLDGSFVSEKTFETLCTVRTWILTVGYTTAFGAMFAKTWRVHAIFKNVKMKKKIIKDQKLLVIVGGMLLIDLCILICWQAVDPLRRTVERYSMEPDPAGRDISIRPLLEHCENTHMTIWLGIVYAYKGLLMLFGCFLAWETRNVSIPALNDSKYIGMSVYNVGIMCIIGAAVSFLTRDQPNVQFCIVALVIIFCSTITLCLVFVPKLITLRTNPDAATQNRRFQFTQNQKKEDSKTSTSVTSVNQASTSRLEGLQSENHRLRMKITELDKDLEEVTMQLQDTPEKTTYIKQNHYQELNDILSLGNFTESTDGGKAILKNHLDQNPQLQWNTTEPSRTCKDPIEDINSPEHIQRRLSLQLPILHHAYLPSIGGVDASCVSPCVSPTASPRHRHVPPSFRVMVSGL

Target: GABAB receptors (heterodimers of GABAB1 and GABAB2 subunits) (rat (endogenous in cultured cortical neurons)) (UniProt Q9Z0U4+O88871)
Assay: proximity ligation; in situ PLA (Duolink) in cultured rat cortical neurons with mouse GABAB1 and rabbit MIB2 antibodies; untreated neurons, and neurons treated with glutamate for 15 or 30 min (interaction increased)

B1: E3 ligase Mind bomb-2 (MIB2) (enzyme, UniProt Q68LP1 1-971)
chain: MDLDPHAGVQVGMRVVRGMDWKWGQQDGGEGGVGTVVELGRHGSPSTPDRTVVVQWDQGTRTNYRAGYQGAHDLLLYDNAQIGIRHPNIICDCCKKHGLRGMRWKCRVCFDYDLCTQCYMHNKHDLTHAFERYETSHSRPVTLSPRQGLPRIPLRGIFQGAKVVRGPDWEWGSQDGGEGKTGRVVDIRGWDVETGRSVASVTWADGTTNVYRVGHKGKVDLKCVGEAAGGFYYKEHLPKLGKPAELQRRVSADGQPFQRGDKVKCLLDTDVLRDMQEGHGGWNPRMAEFIGQMGTVHRITDRGDVRVQFNHETRWTFHPGALTKHNSFWVGDVVRVIDDLDTVKRLQAGHGEWTDDMAPALGRVGKVVKVFGDGNLRVAVGGQRWTFSPACLVACRPEEDANLGVAERARENKSAASVPVAGSLSVALDKLRTQKSDPEHPGRLVVEAALGNVARALDLLRRHPEQAGFHPAVDTKNQGRTALQVAAYLGQVELVRLLLQARASVDLLDEEGNTALHYTAMGNQPEATRLLLSAGCGVDAQNGTRSTALHVAVQRGFLEVVKILCEHGCDVNLPDAHADTPLHSAISAGAGASSIVEVLTEVPGIDVTATNSQGFTLLHHASLKGHVLAVRKILARARQLVDAKKEDGFTALHLAALNNHREVAQVLIREGRCDVNVRNRKLQSPLHLAVQQAHLGLVPLLVDAGCNVNTEDEEGDTALHVALQRHQLLPLVADRAGGDPGPLQLLSRLQASGLPGSTELTVGAAVACFLALEGADVSYANHRGRSPLDLATEGRVLKALQGCAQRFRERQAGGGGGVPPGPRHVLSTPNTVTNLHVSGTAGPEAAECLVCSELALLVLFSPCQHRTVCEECARRMKKCIRCQVIISKKLRPDGSEVVNAIQVPGPPRQLVEELQSRYRQMEERITCPICIDSHIRLVFQCGHGACAPCGAALNACPICRQPIRDRIQIFV
binding: binds
